In publication PMC8503651, “The Stress-Active Cell Division Protein ZapE Alters FtsZ Filament Architecture to Facilitate Division in Escherichia coli” (Frontiers in Microbiology, 2021):
No constants are given. Whether binding was seen depends on the method and setting. Where a sequence is shown, tags or fusion partners need not be part of it.

Sequences of proteins named here, by UniProt entry; tags and fusion partners are left off. Residues count along the entry.
UniProt P02769, residues 25-607: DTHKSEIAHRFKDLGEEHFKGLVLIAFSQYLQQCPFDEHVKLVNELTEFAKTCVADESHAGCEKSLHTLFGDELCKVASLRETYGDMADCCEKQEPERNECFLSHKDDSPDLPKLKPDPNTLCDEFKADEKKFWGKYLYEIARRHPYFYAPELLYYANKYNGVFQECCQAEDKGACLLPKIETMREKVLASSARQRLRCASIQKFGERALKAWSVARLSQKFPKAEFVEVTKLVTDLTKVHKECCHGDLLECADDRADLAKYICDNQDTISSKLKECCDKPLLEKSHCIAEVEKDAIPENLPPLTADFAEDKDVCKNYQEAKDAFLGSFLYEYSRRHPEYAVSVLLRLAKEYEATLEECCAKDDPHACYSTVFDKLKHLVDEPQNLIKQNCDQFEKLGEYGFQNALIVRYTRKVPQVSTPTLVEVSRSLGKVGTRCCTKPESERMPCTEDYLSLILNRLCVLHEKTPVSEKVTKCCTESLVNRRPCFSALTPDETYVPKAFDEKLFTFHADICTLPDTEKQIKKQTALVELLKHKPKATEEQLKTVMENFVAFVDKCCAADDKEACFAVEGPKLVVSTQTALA

Target: bovine serum albumin (bovine) (UniProt P02769)
Assay: far-Western, overlay or dot blot; BSA, ZapE and FtsZ (10 μM each; FtsZ alone or with 2 mM GDP or 2 mM GTP) spotted on nitrocellulose, blocked with 2% BSA, incubated with ZapE (8 μM) and ATP (4 mM) in 50 mM HEPES pH 7.5, 150 mM KCl, 20 mM MgCl2, 23°C, 1 h; probed with anti-ZapE antiserum; both purified

B1: ZapE (N-terminal six histidine fusion protein) (enzyme, Escherichia coli, UniProt P64612 1-375, looked up)
chain: MQSVTPTSQYLKALNEGSHQPDDVQKEAVSRLEIIYQELINSTPPAPRTSGLMARVGKLWGKREDTKHTPVRGLYMWGGVGRGKTWLMDLFYQSLPGERKQRLHFHRFMLRVHEELTALQGQTDPLEIIADRFKAETDVLCFDEFFVSDITDAMLLGGLMKALFARGITLVATSNIPPDELYRNGLQRARFLPAIDAIKQHCDVMNVDAGVDYRLRTLTQAHLWLSPLHDETRAQMDKLWLALAGGKRENSPTLEINHRPLATMGVENQTLAVSFTTLCVDARSQHDYIALSRLFHTVMLFDVPVMTRLMESEARRFIALVDEFYERHVKLVVSAEVPLYEIYQGDRLKFEFQRCLSRLQEMQSEEYLKREHLAG
- binding: no binding (tested: ZapE 8 μM on BSA spotted at 10 μM)
